In patent US20100143940A1, “(3R)-HYDROXYACYL-ACP DEHYDRATASE ENZYMES USED IN THE BIOSYNTHESIS OF MYCOLIC ACIDS AND USE OF SAME FOR SCREENING ANTIBIOTICS” (priority 2007, published 2010):
Results are given in words; binding and its absence hold for the method and conditions named. Some binding calls cover weakened binding; strength is not graded here. Sequences can lack the tags named with a protein.

By UniProt entry, the sequences of proteins in these tests, tags left out. Where a name states a change or a piece, a line headed by the entry shows the natural chain unless it says otherwise.
UniProt P9WFK0: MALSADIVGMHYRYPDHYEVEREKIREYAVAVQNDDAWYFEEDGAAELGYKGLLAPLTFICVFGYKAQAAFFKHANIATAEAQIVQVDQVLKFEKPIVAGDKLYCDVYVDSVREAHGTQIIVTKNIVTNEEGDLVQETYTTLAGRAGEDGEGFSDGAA

Columns and labels:
[1] = molecular target: T1, Rv0636 protein of M. tuberculosis H37Rv (no tag, coexpressed with H-Rv0635) (M. tuberculosis H37Rv); assay: summary of the coelution and light scattering results
T1 sequence: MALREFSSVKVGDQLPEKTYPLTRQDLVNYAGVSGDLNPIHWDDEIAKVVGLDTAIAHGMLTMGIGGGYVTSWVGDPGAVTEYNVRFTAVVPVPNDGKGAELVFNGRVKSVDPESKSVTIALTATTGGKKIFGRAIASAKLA

[2] = molecular target: T1, Rv0636 protein of M. tuberculosis H37Rv (no tag, coexpressed with H-Rv0635) (M. tuberculosis H37Rv); assay: dynamic light scattering of the Rv0635-Rv0636 complex, 20 mg/ml
[3] = molecular target: T1, Rv0636 protein of M. tuberculosis H37Rv (no tag, coexpressed with H-Rv0635) (M. tuberculosis H37Rv); assay: coelution on Ni Sepharose and Superdex 75 exclusion column, SDS-PAGE

Measured: binding

Rv0635 protein of M. tuberculosis H37Rv fused with the N-terminal polyhistidine tag (from UniProt P9WFK0 2-158)
binds: all assays above
